“And” between values parts separate entries of the source, which are not always exact repeats. Identical values can stand only once. This is one part of the list. Further columns of the screen follow, without active or inactive calls. Compounds called inactive in the main read-out are mostly missing here. Words in brackets tell the shape of the fitted curve; partial curves, single points and poor fits give uncertain potencies.
Assay: qHTS Assay for Modulators of Lamin A Splicing
Details: HeLa LMNA splicing GFP/RFP minigene ratio, 48 h
Method in brief: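 Read-out is the ratio of GFP to DsRed2 object intensity, acquired by 488 nm laser-scanning cytometry on HeLa lamin A-EGFP minigene reporter cells. Compound incubation 48 hrs at 37 °C in Opti-MEM with 2% FBS; DMSO 0.5% final.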

[1] = measured here: RFP viability control channel
[2] = measured here: GFP splicing reporter channel

| SMILES | AC50 [1] | AC50 [2] |
| --- | --- | --- |
| O=C(Cn1nc(-c2ccccc2)ccc1=O)Nc1ccc(N2CCN(C(=O)c3ccccc3)CC2)cc1 | 11.2 µM [rising, partial curve, poor fit] |  |
| CCCCN(CCCC)CC(O)CN(c1cc([N+](=O)[O-])ccc1OC)S(=O)(=O)c1ccccc1 (stereo unspecified) | 14.1 µM [rising, single point] |  |
| CC(O/N=C/c1ccccc1OC(F)F)C(=O)Nc1cccc(S(=O)(=O)N2CCOCC2)c1 (stereo unspecified) | 20 µM [rising, partial curve, poor fit] |  |
| O=C(Nc1ccc(CN2CCOCC2)cc1)c1ccc(-c2ccc(Cl)cc2Cl)o1 | 12.6 µM [falling, partial curve, poor fit] |  |
| CC(=O)c1ccc(NC(=S)NCCCN2CCOCC2)cc1 |  | 11.2 µM [rising, partial curve] |
| C[C@@]12CC(=O)NC1N(C(=O)c1cccc(C(F)(F)F)c1)C(c1ccccc1OC(=O)c1cccc(C(F)(F)F)c1)C2 (stereo partly specified) |  | 12.6 µM [rising, single point] |
| COc1cccc(NC(=S)N(CCc2c(C)[nH]c3ccc(C)cc23)Cc2cccs2)c1 | 14.1 µM [rising, partial curve] | 7.94 µM [rising, partial curve, poor fit] |
| COc1ccc(-c2cnc(C)o2)cc1S(=O)(=O)Nc1ccc(C)c(N(C)C)c1 | 5.62 µM [rising, single point] | 6.31 µM [rising, single point] |
| CC(C)(C)c1ccc(C(=O)CCCN2CCC(OC(c3ccccc3)c3ccccc3)CC2)cc1 | 6.31 µM [falling, partial curve, poor fit] | 7.94 µM [falling, partial curve, poor fit] |
| Cc1cc2ncn(/N=C/c3ccc([N+](=O)[O-])o3)c2cc1C | 22.4 µM [falling, partial curve] | 35.5 µM [falling, single point] |
| COc1ccc(N2CCN(CC(=O)Nc3cccc(S(=O)(=O)N4CCOCC4)c3)CC2)cc1 | 35.5 µM [rising, single point] |  |
| Cc1cc(O)c(C(C)C)cc1C1(c2cc(C(C)C)c(O)cc2C)OC(=O)c2ccccc21 | 12.6 µM [falling, single point] |  |
| CCCc1nc2ccc(NC(=O)c3cccs3)cc2c(=O)n1Cc1ccc(Cl)cc1 | 0.0316 µM [rising, full curve, poor fit] |  |
| COc1ccc([N+](=O)[O-])cc1N(CC(=O)NC(C(C)C)C(C)C)S(C)(=O)=O |  | 0.1 µM [rising, partial curve, poor fit] |
| O=C1C=C(Nc2ccccc2)C(=O)c2ccccc21 | 0.0178 µM [falling, full curve, poor fit] |  |
| Cc1occc1C(=O)NNC(=S)Nc1cccc([N+](=O)[O-])c1 | 0.0562 µM [falling, full curve, poor fit] |  |
| Cn1c(COc2ccc(Br)cc2)nnc1SC1CCc2ccccc2C1=O (stereo unspecified) | 12.6 µM [rising, partial curve] | 8.91 µM [rising, partial curve, poor fit] |
| COc1ccc(CN(CCC(c2ccccc2)C2CCOC(C)(C)C2)C(C)=O)cc1 (stereo unspecified) | 12.6 µM [rising, partial curve, poor fit] | 11.2 µM [rising, partial curve, poor fit] |
| COc1ccc(C2CC(c3ccc([N+](=O)[O-])cc3)=NN2C(=O)c2ccccc2)cc1OC (stereo unspecified) | 8.91 µM [falling, partial curve] |  |
| CCOC(=O)C1(Cc2ccccc2)NC(c2ccccc2F)C2C(=O)N(CC)C(=O)C21 (stereo unspecified) | 6.31 µM [rising, full curve, poor fit] |  |
| Cn1c(CN2CCCCC2)nc2cc(NC(=O)c3ccc(F)cc3)ccc21 |  | 7.08 µM [rising, partial curve] |
| O=C1COc2ccc(C(=O)COC(=O)CNC(=O)c3ccco3)cc2N1 |  | 0.02 µM [falling, full curve, poor fit] |
| CCCCCC(O)c1cccc(OCc2ccc3ccccc3n2)c1 (stereo unspecified) | 14.1 µM [rising, partial curve] and 3.98 nM [falling, full curve, poor fit] | 7.94 µM [rising, partial curve, poor fit] and 5.01 nM [falling, full curve, poor fit] |
| CCNC(=S)Nc1cc(Cl)ccc1Oc1ccccc1 | 35.5 µM [rising, single point] | 14.1 µM [rising, single point] |
| Nc1cc(-c2ccccc2)ccc1O | 7.08 µM [rising, full curve, poor fit] |  |
| CN(CC(=O)Nc1ccccc1Cl)CC(=O)Nc1ccccc1[N+](=O)[O-] | 0.398 µM [falling, full curve, poor fit] |  |
| O=c1c2[nH]c3ccccc3c2nc(SCc2cccc(F)c2)n1-c1ccccc1 | 35.5 µM [falling, single point] |  |

| SMILES | AC50 [1] | AC50 [2] |
| --- | --- | --- |
| CCOc1ccccc1NC(=O)C1CCCN(S(=O)(=O)c2cccc3nsnc23)C1 (stereo unspecified) | 17.8 µM [rising, partial curve] | 1.26 µM [rising, full curve, poor fit] |
| CC1CC(C)CN(S(=O)(=O)c2ccc(C(=O)NCCCn3ccnc3)cc2)C1 (stereo unspecified) | 6.31 µM [rising, partial curve] |  |
| FC(F)(F)c1nc2ccccc2n2c(-c3ccc(Cl)cc3)nnc12 | 35.5 µM [falling, single point] | 35.5 µM [falling, single point] |
| NC(=S)N/N=C/c1ccc(C(F)(F)F)cc1 | 31.6 µM [falling, single point] | 35.5 µM [falling, single point] |
| C=CCc1c(C)nc(SC)nc1Nc1ccc(C)cc1 | 12.6 µM [rising, partial curve] |  |
| Cc1nn2c3ccccc3nc2c2ccccc12 | 12.6 µM [rising, partial curve] |  |
| Cc1ccc(-c2nn(-c3ccccc3)c3[nH]c(=O)c(CNCc4ccccc4)cc23)cc1 |  | 35.5 µM [falling, single point] |
| O=C1CCCCCN1Cc1nnc(SCc2nc3ccccc3s2)n1-c1ccccn1 | 0.0631 µM [rising, full curve, poor fit] | 0.0398 µM [rising, full curve, poor fit] |
| O=c1ccn([C@@H]2O[C@H](CO)[C@@H](O)[C@H]2O)c(=O)[nH]1 |  | 0.0112 µM [falling, full curve, poor fit] |
| N#CC1=C(N)N(c2ccc(F)cc2)C2=C(C1c1ccc(O)cc1)S(=O)(=O)CC2 (stereo unspecified) |  | 11.2 µM [falling, single point] |
| Cc1c(Cl)c(=O)oc2cc(OC(C)C)ccc12 | 12.6 µM [rising, partial curve, poor fit] | 2.24 µM [rising, full curve, poor fit] |
| CCC1=NN2C(=N)/C(=C\c3ccc(OCc4cc(=O)n5nc(CC)sc5n4)c(OC)c3)C(=O)N=C2S1 | 35.5 µM [rising, single point] |  |
| COc1ccc(C(=O)/C=C/c2ccc(N3CCCCC3)c([N+](=O)[O-])c2)c(OC)c1 | 3.55 µM [rising, partial curve] | 35.5 µM [falling, single point] |
| CC1=Cc2ccccc2C(C#N)N1C(=O)c1ccccc1 (stereo unspecified) | 31.6 µM [rising, single point] | 31.6 µM [rising, single point] |
| CCc1ccc(OCC(=O)N(Cc2ccc(OC)cc2)C2CCS(=O)(=O)C2)cc1 (stereo unspecified) | 5.62 µM [falling, full curve, poor fit] |  |
| CC(C)N1CCN(Cc2ccc(C#CCCO)cc2)CC1CCO (stereo unspecified) | 0.0126 µM [rising, full curve, poor fit] | 0.0631 µM [rising, partial curve, poor fit] |
| Cc1n[nH]c(C)c1Sc1ccccc1[N+](=O)[O-] |  | 0.0224 µM [rising, full curve, poor fit] |
| Cc1cc(C)cc(-n2ccnc2SCC(=O)Nc2nccs2)c1 |  | 11.2 µM [rising, partial curve] |
| COc1ccc2nc(NC(=S)N(C)C)sc2c1 | 12.6 µM [rising, partial curve] |  |
| CC(=O)Nc1ccc(Oc2ccc(-c3noc(C)n3)cc2)cc1 | 10 µM [rising, partial curve, poor fit] | 10 µM [rising, partial curve, poor fit] |
| COc1ccc2c(c1OC)C(=O)N1c3ccccc3C(=O)N(c3ccccc3F)C21 (stereo unspecified) | 31.6 µM [rising, single point] |  |
| O=C1C(C2=C(O)c3ccccc3C2=O)=Nc2ccccc21 | 35.5 µM [falling, single point] |  |
| N#CCCN(Cc1cccnc1)S(=O)(=O)c1ccc(S(=O)(=O)N2CCCCCC2)cc1 | 15.8 µM [rising, partial curve] |  |
| O=[N+]([O-])c1cc(S(=O)(=O)C(F)(F)F)ccc1Sc1nc2ccccc2s1 | 0.316 µM [falling, partial curve] | 1.26 µM [falling, single point] |
| Clc1ccccc1-c1ccc2ncnc(N3CCNCC3)c2c1 | 35.5 µM [falling, single point] |  |
| COc1ccc(N2CCN(C(=O)c3ccc4ccccc4n3)CC2)cc1 |  | 0.501 µM [rising, full curve, poor fit] |

Source: PubChem BioAssay AID1487 (National Center for Advancing Translational Sciences (NCATS), 2009)
